Values from PubChem BioAssay AID1508597 (Cure First, 2020)
The whole screen tested about 2,100 reagents; below is an unselected part. 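Calls flag viability under 80% in either arm, not effects specific to rucaparib; the reference for percent is not stated.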 Unmarked entries are inactive. Reagent sequences are not shown. Not stated in the record: the 100% reference.

Screen: 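Genes whose silencing sensitises or protects ovarian cancer cells against rucaparib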 (primary screen)
System: human ovarian carcinoma lines grown from tumours: OCI-P5x (papillary serous) and OCI-C5x (clear cell)
Reagent: siRNA pool against human genes, 1.25 pmol siRNA per well
Timing: 72 h or 96 h, depending on the cell culture
Treatment: rucaparib 20 µM (about IC30) or vehicle, present until read-out
Measurement: 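ATP luminescence measured at 72 or 96 h according to the culture, then normalised and expressed as percent viability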
Direction: viability, normalised: higher = more viable cells remaining
Call rule: 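Active when normalised viability falls below 80 percent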
Meaning of the calls: active = viability under 80%; inactive = viability 80% or more

target,rucaparib or vehicle,cell line,technical replicate,"viability, normalised (%)"
CUL3,Rucaparib,OCI-C5x (clear cell),1,68.2 (active)
CUL3,Rucaparib,OCI-C5x (clear cell),2,66.6 (active)
CUL3,Rucaparib,OCI-C5x (clear cell),3,68 (active)
CUL3,Rucaparib,OCI-P5x (serous),1,84.3
CUL3,Rucaparib,OCI-P5x (serous),2,81.8
CUL3,Rucaparib,OCI-P5x (serous),3,83.8
CUL3,Vehicle,OCI-C5x (clear cell),1,45.6 (active)
CUL3,Vehicle,OCI-C5x (clear cell),2,63.3 (active)
CUL3,Vehicle,OCI-C5x (clear cell),3,55.7 (active)
CUL3,Vehicle,OCI-P5x (serous),1,81.6
CUL3,Vehicle,OCI-P5x (serous),2,99.7
CUL3,Vehicle,OCI-P5x (serous),3,84.8
CEBPG,Rucaparib,OCI-C5x (clear cell),1,50.8 (active)
CEBPG,Rucaparib,OCI-C5x (clear cell),2,47.9 (active)
CEBPG,Rucaparib,OCI-C5x (clear cell),3,39.3 (active)
CEBPG,Rucaparib,OCI-P5x (serous),1,60.6 (active)
CEBPG,Rucaparib,OCI-P5x (serous),2,74.9 (active)
CEBPG,Rucaparib,OCI-P5x (serous),3,71.5 (active)
CEBPG,Vehicle,OCI-C5x (clear cell),1,41.1 (active)
CEBPG,Vehicle,OCI-C5x (clear cell),2,41.9 (active)
CEBPG,Vehicle,OCI-C5x (clear cell),3,67.4 (active)
CEBPG,Vehicle,OCI-P5x (serous),1,74.1 (active)
CEBPG,Vehicle,OCI-P5x (serous),2,73.6 (active)
CEBPG,Vehicle,OCI-P5x (serous),3,77.3 (active)

Individual results from above.
For “viability, normalised (%)”, CEBPG, rucaparib or vehicle Rucaparib, cell line OCI-P5x (serous), technical replicate 1 reads 60.6 (active)
Entry of CUL3, rucaparib or vehicle Rucaparib, cell line OCI-P5x (serous), technical replicate 2 under “viability, normalised (%)”: 81.8
